In the supplement of paper PMC5949888:
Most values lie at the floor of the assay. Slopes are relative: functional sequences can read slightly below zero.

Each substance was assayed on Saccharomyces cerevisiae PS128 hsf1 delta, HSF1(1-493) fusion (assay: growth estimate (transactivation domain function in HSF1 fusion, heat-shock survival) (a.u. (slope of normalised read count over time)); higher = stronger growth at 37°C, i.e. more transactivation activity). Conditions: library: random library.
Experimental: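 Random 60-nt DNA library encoding peptides of up to 20 aa, fused to the C-terminus of yeast HSF1 residues 1-493 (C-terminal TAD deleted) and expressed from the native HSF1 promoter on a CEN plasmid in hsf1-deleted S. cerevisiae PS128. Cells were selected at 37°C on -trp 5-FOA plates for 0, 2, 4, 6 and 8 days and amplicons were sequenced. Growth estimate is the slope of a robust linear fit of total-sum-normalised read counts (normalised to the first time point) over time, using at least 2 replicates. Sequences are classed functional (TAD activity) above a threshold of -0.13, set from stop-codon control sequences.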

Substance | growth estimate
LRTENG | < -0.25
DTNTGVRGRQNLAEDH | < -0.25
TVRKSRTRVDTSIGQLITSR | < -0.25
LHSIAGSSG | < -0.25
RVFRGKWAIGEP | < -0.25
RCGPAFYLIYC | < -0.25
SLGCRLGGSESSRDIQDLNP | < -0.25
MGEFNCRVVFMTFRRCRRSA | < -0.25
FELRNGIKDIKRMWV | < -0.25
GTGHYIAMGGGQNPDGRVRR | < -0.25
TPL | < -0.25
RWSTLNFRS | < -0.25
FVESREH | < -0.25
VILKSDSCRTGLSTNFSGYG | < -0.25
GGYGRDLSGASREGLSQSIP | < -0.25
LPTLTSPRKILRQLLNGPAW | < -0.25
EPRACRRPVCGCNRLPS | < -0.25
RSVTGLGPGPNHPWRWAPGR | < -0.25
LSGILFI | < -0.25
AKKSGAGLCVRQEPHYVPFS | -0.212
SNVHTINGEKYPRGGARQW | < -0.25
HKGSRGSFETPPSSVAVPAT | < -0.25
EIQTPGNPAKGDRGNRLPGW | < -0.25
TYQMPQLGPIVVPFRVHNSR | < -0.25

Substance | growth estimate
VVRDY | < -0.25
LRSES | < -0.25
VSCGYGRNVHKGIAPTDSSA | -0.246
KEW | < -0.25
IATPFAEAHQITRAS | < -0.25
SSEGEMI | < -0.25
PHKADGNDVFVAVGTPRVD | < -0.25
QPYPW | < -0.25
PVNPLGTGPLN | < -0.25
AKNSGEAQKYGGHSTKRRRG | < -0.25
EAVSPVWIVVRRGFVCTRIH | < -0.25
IGMRPV | < -0.25
RIARITLKTMSVHMPEFT | < -0.25
RSL | < -0.25
TGQTLLSVINRFGLH | < -0.25
SRHRTITVSTNL | < -0.25
ARISPQKLN | < -0.25
AEHLTGLGHTLRRFDLFISP | < -0.25
TKKAESAVDREGSCFMGKSG | -0.243
NRPCPQGRGLYSSLLAYPYR | < -0.25
GGLKYGRCVSSSYTVLPGMS | < -0.25
RPTHEQMRRGALGVVFAYTS | -0.245
DLPILCLFVRS | < -0.25
HHWC | -0.246

Substance | growth estimate
HSAARNQTACFWLRGWIHPA | < -0.25
DLSPTITRCMPGQINTPYLA | < -0.25
DRRLT | < -0.25
RTTPGCYITMIKVRVGWFVC | < -0.25
QKLQKRDLGPQHVTCGSSIV | -0.243
EAYHLRPRRKYFAGLTSGAG | < -0.25
TMLDIFTSQAERCLGRSTAR | < -0.25
NVAAFAWVKNGWLMRFPAAE | < -0.25
DKLPRFA | -0.231
THSTRVSRHLRCN | < -0.25
GEGCYISPSGCSRAATST | < -0.25
NVCGLIATNIPVNRSVSVAP | < -0.25
CCSNAIMMPTSRPPS | < -0.25
LEVVNWGAG | < -0.25
LFKVFLFPYR | < -0.25
LTLSTLVSREANAEDRAYAG | -0.226
CDRSAFSAQTQRCWSILRWL | 0.126
HTANPIQGILHKA | < -0.25
NQRNLPIRCGTSTPGPGITY | < -0.25
TGNRQCNSLVECHARTKQGW | < -0.25
GLKFCQR | < -0.25
RSPPNRVWCHELQHLSFAFA | < -0.25
RHGVCVLGQLVPEFGQILKQ | < -0.25
FKR | < -0.25

A second format for some results above.
Substance	growth estimate
FELRNGIKDIKRMWV	< -0.25
GTGHYIAMGGGQNPDGRVRR	< -0.25
TPL	< -0.25

Part of the list above, with tabs.
Substance	growth estimate
EAYHLRPRRKYFAGLTSGAG	< -0.25
HTANPIQGILHKA	< -0.25
FKR	< -0.25

(listing goes on)

Substance | growth estimate
PRAILVPHR | < -0.25
VPRLRCPRFAIR | < -0.25
FDLPVTLNDFVQNNGGGART | < -0.25
RTGRSTVIGTEAQ | < -0.25
NRGRKSRLRQRRSGTKTICP | < -0.25
TVLGIRSRY | < -0.25
GGTRLNA | < -0.25
RWIIAHDDHYPQYAAPVSRS | < -0.25
AVSPSG | < -0.25
VEMAKGLHYAVWLPLLALPI | < -0.25
VPNGSIDLSNCHNWLTRAGH | < -0.25
AVSSEITRLNYCVSYSPSLS | < -0.25
RYSVANKRELLAIPDPCDYR | < -0.25
YRNLIVRQVRILTRGPLRDL | < -0.25
PGDYPAEMPSPYLPQLQPAL | < -0.25
NNNAVRVLPILRAPDVHLRG | < -0.25
DSGGTLLFNNLFCYIVERRN | < -0.25
MNSE | < -0.25
SLNLSELQGRPIT | < -0.25
LTGAMTFSAGSTTYVGESRL | < -0.25
IINWATGRLSA | < -0.25
EWHHLGKDVSK | < -0.25
FRHFKSRQSEPLLHLSRVGG | < -0.25
